Data: PubChem BioAssay AID1487 (National Center for Advancing Translational Sciences (NCATS), 2009)
This is one part of the list. Further columns of the screen follow, without active or inactive calls. Compounds called inactive in the main read-out are mostly missing here. The note in brackets gives the kind of curve behind each potency; many fits are weak.

Assay: qHTS Assay for Modulators of Lamin A Splicing
Details: HeLa LMNA splicing GFP/RFP minigene ratio, 48 h
How it was run: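 Read-out is the ratio of GFP to DsRed2 object intensity, acquired by 488 nm laser-scanning cytometry on HeLa lamin A-EGFP minigene reporter cells. Compound incubation 48 hrs at 37 °C in Opti-MEM with 2% FBS; DMSO 0.5% final.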

[1] = measured here: RFP viability control channel
[2] = measured here: GFP splicing reporter channel

| Compound | AC50 [1] | AC50 [2] |
| --- | --- | --- |
| COc1ccccc1CN(Cc1nc2ccccc2c(=O)[nH]1)S(=O)(=O)c1ccc2ccccc2c1 | 5.62 µM [rising, full curve] | – |
| Cc1csc(NC(=O)c2cccc(Cn3nc(C)c(Br)c3C)c2)n1 | 22.4 µM [rising, single point] | 12.6 µM [rising, single point] |
| Cc1cccc(C)c1OCC(O)CNS(=O)(=O)c1ccccc1C(=O)N1CCCCC1 (stereo not drawn) | 22.4 µM [rising, single point] | – |
| O=C(CNCCC1=CCCCC1)Nc1ccc(N2CCCCCC2)cc1 | 31.6 µM [rising, single point] | – |
| CCn1cc(S(=O)(=O)c2cc(C)cc(C)c2)c(=O)c2cc(F)c(N3CCCCC3)cc21 | 39.8 µM [falling, partial curve, poor fit] | 0.01 µM [falling, full curve, poor fit] |
| CS/C(=C\[N+](=O)[O-])Nc1ccc(C)cc1 | 35.5 µM [falling, partial curve] | 39.8 µM [falling, partial curve, poor fit] |
| Cc1c(O)c(=O)ccn1C | – | 0.01 µM [rising, full curve, poor fit] |
| COCCNC(=S)N1CCc2cc(OC)c(OC)cc2C1COc1ccc(C(C)C)cc1 (stereo not drawn) | 17.8 µM [rising, single point] | – |
| O=C(CCNc1ccc(Br)cc1)c1cccc([N+](=O)[O-])c1 | 35.5 µM [falling, single point] | – |
| CC1CC(C)CN(CC(=O)N2CCOCC2)C1 (stereo not drawn) | 0.0141 µM [rising, full curve] | 0.0794 µM [rising, full curve] |
| Cc1cccc(Nc2nnc(SCC(=O)Nc3ccccc3[N+](=O)[O-])s2)c1C | 15.8 µM [rising, single point] | – |
| Cc1ccc(CNC(=O)Nc2cc(C(=O)NCc3cccc(F)c3)ccc2N2CCCC2)cc1 | 5.62 µM [rising, partial curve, poor fit] | 28.2 µM [rising, partial curve, poor fit] |
| O=C(CC(=O)N/N=C\c1ccc([N+](=O)[O-])cc1)NCCc1ccccc1 | – | 0.0398 µM [falling, full curve, poor fit] |
| CCOC(=O)N1CCN(C(=O)CN(c2ccccc2OC)S(=O)(=O)c2ccc(OC)cc2)CC1 | 5.62 µM [falling, partial curve, poor fit] | – |
| CCOC(=O)c1c(C)sc(-c2c(-c3ccccc3)[nH]c3[nH]c(=O)[nH]c(=O)c23)c1O | 35.5 µM [rising, single point] | 0.0708 µM [rising, partial curve, poor fit] |
| N/N=C1\CCCc2nonc21 | – | 7.08 µM [falling, partial curve, poor fit] |
| COc1ccc(/C=N/Nc2nonc2N)cc1OC | – | 3.98 µM [falling, full curve, poor fit] |
| O=C(NC1CCCC1)C1CCN(S(=O)(=O)N2CCCCC2)CC1 | 0.631 µM [falling, partial curve, poor fit] | 0.794 µM [falling, single point] |
| Cc1ccc([N+](=O)[O-])cc1S(=O)(=O)N(C)C | 0.000794 µM [falling, full curve, poor fit] | 0.000708 µM [falling, full curve, poor fit] |
| CC(C)c1ccc(C(CC(=O)O)NC(=O)c2cccs2)cc1 (stereo not drawn) | – | 0.0631 µM [falling, full curve, poor fit] |
| CCN(CCCNC(=O)CN(C)S(=O)(=O)c1cccc2nsnc12)c1cccc(C)c1 | 35.5 µM [rising, single point] | 35.5 µM [rising, single point] |
| COc1ccc(/C=N/NC(=S)Nc2ccccc2[N+](=O)[O-])cc1O | 11.2 µM [rising, partial curve, poor fit] | – |
| O=C1CC(N2CCN(c3ccc(F)cc3)CC2)C(=O)N1Cc1ccc(N2CCCC2=O)cc1 (stereo not drawn) | 22.4 µM [rising, single point] | 14.1 µM [rising, single point] |
| O=C(Nc1ccccc1)N1CCC(=S)Nc2ccccc21 | 5.62 µM [falling, single point] | 5.62 µM [falling, single point] |
| Cc1ccc(-n2nnnc2SCC(=O)Nc2cccnc2Cl)cc1 | 22.4 µM [rising, partial curve] | – |
| CCn1ncc(CNC(=O)CCSc2nc(-c3ccco3)cc(C(F)(F)F)n2)c1C | 1.12 µM [rising, full curve, poor fit] | – |
| Cc1[nH]c2ccccc2c1C(=O)COC(=O)c1cccc(S(=O)(=O)N2CCCCC2)c1 | 15.8 µM [rising, partial curve] | 10 µM [rising, partial curve] |

| Compound | AC50 [1] | AC50 [2] |
| --- | --- | --- |
| O=C(Nc1ccc(F)cc1)c1ccc2c(=O)n3c(nc2c1)CCCCC3 | 0.0794 µM [falling, full curve] | 0.282 µM [falling, full curve, poor fit] |
| COc1ccc(OC)c(CN2C(=O)c3ccccc3C2C(=O)NCC2CCCO2)c1 (stereo not drawn) | 0.0708 µM [rising, full curve, poor fit] | 0.0224 µM [rising, full curve, poor fit] |
| CC(=NCCN1CCNCC1)C1=C(O)CC(C)(C)CC1=O | 3.98 µM [falling, partial curve, poor fit] | – |
| Cc1nn2c(nc1=O)SCC(c1ccccc1)=N2 | 14.1 µM [rising, single point] | – |
| CCOc1ccccc1NC(=O)CCc1c(C)nn(-c2ccc(N3CCCCC3)nn2)c1C | – | 0.0501 µM [falling, full curve, poor fit] |
| CCC(=O)O[C@]1(C(=O)CCl)[C@@H](C)C[C@H]2[C@@H]3CCC4=CC(=O)C=C[C@]4(C)[C@@]3(F)[C@@H](O)C[C@@]21C | 25.1 µM [rising, single point] | 2.24 µM [falling, full curve, poor fit] |
| CC(/C=N/n1c(C2CCCCC2)n[nH]c1=S)=C\c1ccccc1 | 0.0316 µM [falling, single point] | 0.0282 µM [falling, single point] |
| Cc1c(/C=C/C(=O)c2ccccc2O)cnn1C | 0.0355 µM [falling, full curve, poor fit] | – |
| CNc1ccc(Br)cc(C(=O)/C=C/c2cccc(OC)c2)c1=O | – | 31.6 µM [falling, single point] |
| CC(=O)c1ccc(N2CCN(C(=O)CCN3C(=S)NC(C)(C)CC3C)CC2)cc1 (stereo not drawn) | – | 3.55 µM [falling, partial curve, poor fit] |
| CC1CCC(C(C)C)C(=O)C1 (stereo not drawn) | – | 0.251 µM [falling, full curve] |
| Cc1ccc(C(NC(=O)c2ccccc2)C(Cl)Cl)cc1 (stereo not drawn) | 15.8 µM [rising, partial curve] | 17.8 µM [rising, single point] |
| CCCCN(CCCC)S(=O)(=O)c1ccc2oc(C(=O)N3CCOCC3)c(C)c2c1 | 35.5 µM [rising, single point] | – |
| O=C1C(c2ccc(F)cc2)N(CC2COc3ccccc3O2)C(=O)CN1C1CCCCC1 (stereo not drawn) | – | 3.98 µM [rising, full curve, poor fit] |
| COc1ccc(NC2=CC(c3ccc(OC)c(OC)c3)N(c3ccc(OC)cc3)C2=O)cc1 (stereo not drawn) | 0.0282 µM [falling, full curve, poor fit] | – |
| N=C1SC(c2ccccc2)C(=O)N1c1ncc(Cc2ccccc2Cl)s1 (stereo not drawn) | 25.1 µM [rising, single point] | – |
| Cc1ccc(C(=O)N2CC3(C(C)C)CN(C(=O)c4ccc(C)cc4)CC(C(C)C)(C2)C3=O)cc1 | 0.0708 µM [falling, full curve, poor fit] | – |
| Cc1ccc(S(=O)(=O)CC(=O)c2ccc(C(C)(C)C)cc2)cc1 | 17.8 µM [rising, single point] | – |
| CC(=O)Nc1ccc(Nc2cc(C)nc3c(-c4ccccc4)cnn23)cc1 | 0.0126 µM [rising, full curve, poor fit] | – |
| Cn1cc(C(=O)N/N=C/c2cccs2)c2ccccc21 | 5.01 µM [rising, partial curve] | – |
| COc1ccc(NC(=O)CC2C(=O)N(c3ccc(F)cc3)C(=S)N2NC(=O)c2ccccc2)cc1 (stereo not drawn) | 12.6 µM [rising, single point] | – |
| CCN(CC)S(=O)(=O)c1cccc(NC(=O)c2cc3ccccc3o2)c1 | 22.4 µM [rising, partial curve] | 12.6 µM [rising, partial curve] |
| CC(Oc1ccc2oc3ccccc3c2c1)C(=O)NC12CC3CC(CC(C3)C1)C2 (stereo not drawn) | 35.5 µM [rising, single point] | 31.6 µM [rising, single point] |
| Cc1ccc(-c2noc(CCC(=O)Nc3ccc4c(c3)OCO4)n2)cc1 | – | 22.4 µM [rising, single point] |
| COc1ccc(-c2c(C(F)(F)F)oc3cc(OCC(=O)Nc4ccccc4C(F)(F)F)ccc3c2=O)cc1OC | 5.01 µM [falling, partial curve] | – |
| COc1cccc(-c2nn(-c3ccccc3)cc2C(=O)Nc2nccs2)c1 | 15.8 µM [rising, single point] | – |
| COc1cc(C)nc(Nc2nc(C)c(C(C)=O)s2)n1 | 0.398 µM [rising, full curve, poor fit] | – |

Looked up one by one from above (4):

| Compound | AC50 [1] | AC50 [2] |
| --- | --- | --- |
| CC(Oc1ccc2oc3ccccc3c2c1)C(=O)NC12CC3CC(CC(C3)C1)C2 (stereo not drawn) | 35.5 µM [rising, single point] | 31.6 µM [rising, single point] |
| N=C1SC(c2ccccc2)C(=O)N1c1ncc(Cc2ccccc2Cl)s1 (stereo not drawn) | 25.1 µM [rising, single point] | – |
| Cc1ccc(-c2noc(CCC(=O)Nc3ccc4c(c3)OCO4)n2)cc1 | – | 22.4 µM [rising, single point] |
| COc1cc(C)nc(Nc2nc(C)c(C(C)=O)s2)n1 | 0.398 µM [rising, full curve, poor fit] | – |
